Six molecules from EP2748199B1 (Board of Regents, The University of Texas System, dated 2019) can be followed below.

Assay [1] deals with T1, human OX40 (human, UniProt P43489 29-277).
T1 construct: whole, on cells; The construct used for transfection is not described; also called hOX40; OX40 receptor
T1 sequence (looked up): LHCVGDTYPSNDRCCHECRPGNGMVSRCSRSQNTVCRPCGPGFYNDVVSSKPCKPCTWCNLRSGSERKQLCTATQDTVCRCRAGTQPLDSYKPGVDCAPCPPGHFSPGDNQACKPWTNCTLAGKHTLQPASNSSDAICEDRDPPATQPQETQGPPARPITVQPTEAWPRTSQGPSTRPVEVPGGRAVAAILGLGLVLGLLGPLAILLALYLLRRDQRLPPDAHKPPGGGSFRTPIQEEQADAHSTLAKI
In words: cell ELISA, hybridoma supernatants on dried L-hOX40 cells vs parental L cells. In general terms: ELISA stands for enzyme-linked immunosorbent assay.

Assay [2] has as its target T1, human OX40. In words: flow cytometry, mixed L and L-hOX40 cells, 0.5 µg purified antibody, PE anti-mouse IgG. (In general: A flow cytometer gives signals particle by particle.)
Assay [3] has as its target T1, human OX40. In words: flow cytometry, mixed SUPM2 and SUPM2-hOX40 cells.
In assay [4] the target is T1, human OX40. In words: FACS binding assay on L/OX40 cells, PE goat anti-human IgG.
The target in assay [5] is T1, human OX40. Briefly: FACS binding assay on L/hOX40 cells.
In assay [6] the target is T1, human OX40. In words: FACS binding assay on L/hOX40 cells, PE goat anti-human IgG.
The target in assay [7] is T1, human OX40. Briefly: FACS binding assay on L/hOX40 cells, PE goat anti-mouse IgG.

These are yes or no findings as the source states them, for the method shown. Some entries that bind do so weakly or less than the wild type.

B1: mouse 119-122 (antibody, V domains shown)
VH: EVQLVESGGGLVQPGESLKLSCESNEYEFPSHDMSWVRKTPEKRLELVAAINSDGGSTYYPDTMERRFIISRDNTKKTLYLQMSSLRSEDTALYYCARHYDDYYAWFAYWGQGTLVTVSA
VL: DIVLTQSPASLAVSLGQRATISCRASKSVSTSGYSYMHWYQQKPGQPPKLLIYLASNLESGVPARFSGSGSGTDFTLNIHPVEEEDAATYYCQHSRELPLTFGAGTKLELK
As to B1, the binding result with human OX40 [1], with human OX40 [2] and with human OX40 [3] was “binds” in each case.

B2: Chimeric 119-122 IgG1/kappa monoclonal antibody (antibody, V domains shown)
VH: B1 VH
VL: B1 VL
For the molecule B2, the binding entry with human OX40 [4] is “binds”.

B3: Humanized 119-122 IgG1/kappa monoclonal antibody (antibody, V domains shown)
VH: EVQLVESGGGLVQPGGSLRLSCAASEYEFPSHDMSWVRQAPGKGLELVAAINSDGGSTYYPDTMERRFTISRDNAKNSLYLQMNSLRAEDTAVYYCARHYDDYYAWFAYWGQGTMVTVSS
VL: EIVLTQSPATLSLSPGERATLSCRASKSVSTSGYSYMHWYQQKPGQAPRLLIYLASNLESGVPARFSGSGSGTDFTLTISSLEPEDFAVYYCQHSRELPLTFGGGTKVEIK
With B3, in the assay with human OX40 [4], the binding result is listed as “binds”.

B4: Humanized 106-222 IgG1/kappa monoclonal antibody (antibody, V domains shown)
VH: QVQLVQSGSELKKPGASVKVSCKASGYTFTDYSMHWVRQAPGQGLKWMGWINTETGEPTYADDFKGRFVFSLDTSVSTAYLQISSLKAEDTAVYYCANPYYDYVSYYAMDYWGQGTTVTVSS
VL: DIQMTQSPSSLSASVGDRVTITCKASQDVSTAVAWYQQKPGKAPKLLIYSASYLYTGVPSRFSGSGSGTDFTFTISSLQPEDIATYYCQQHYSTPRTFGQGTKLEIK
As to B4, the binding entry with human OX40 [5] and in the assay with human OX40 [6] was “binds” throughout.

B5: mouse 106-222 (antibody, V domains shown)
VH: QIQLVQSGPELKKPGETVKISCKASGYTFTDYSMHWVKQAPGKGLKWMGWINTETGEPTYADDFKGRFAFSLETSASTAYLQINNLKNEDTATYFCANPYYDYVSYYAMDYWGHGTSVTVSS
VL: DIVMTQSHKFMSTSVRDRVSITCKASQDVSTAVAWYQQKPGQSPKLLIYSASYLYTGVPDRFTGSGSGTDFTFTISSVQAEDLAVYYCQQHYSTPRTFGGGTKLEIK
For B5, the binding entry with human OX40 [1], in the assay with human OX40 [2], with human OX40 [3] and in the assay with human OX40 [7] was “binds” each time.

B6: Chimeric 106-222 IgG1/kappa monoclonal antibody (antibody, V domains shown)
VH: B5 VH
VL: B5 VL
Regarding B6, the binding entry with human OX40 [6] is recorded as “binds”.
